Laboratory results taken from article PMC4551915, “Bacteriophage GIL01 gp7 interacts with host LexA repressor to enhance DNA binding and inhibit RecA-mediated auto-cleavage” (Nucleic Acids Research, 2015).

Molecular target: T1, His6-LexA (Bacillus thuringiensis LexA repressor) (B. thuringiensis) (UniProt A0RH75)
T1 sequence: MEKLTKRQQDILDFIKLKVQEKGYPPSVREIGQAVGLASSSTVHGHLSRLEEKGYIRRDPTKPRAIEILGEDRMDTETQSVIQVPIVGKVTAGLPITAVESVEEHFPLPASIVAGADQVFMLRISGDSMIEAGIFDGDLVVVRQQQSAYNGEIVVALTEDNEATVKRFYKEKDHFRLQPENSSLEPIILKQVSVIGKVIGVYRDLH
Assay: native gel or EMSA; His6-LexA (8 nM) and His6-gp7 (340 nM) with 5' 32P-labelled P1 promoter DNA probes (-25 to +176; wild type, dinBox1 mutant, dinBox1b mutant); 80 mM NaCl, 25 mM Tris pH 7.5, 5 mM EDTA, 2 mM DTT, 0.1 mg/ml BSA, poly(dI-dC); 30 min at room temperature; native 6% polyacrylamide gel; supershift of the LexA-DNA complex; both purified

## His6-gp7 (bacteriophage GIL01 gp7, product of ORF7)
  binding: binds

Results are given in words; binding and its absence hold for the method and conditions named. Binding can be weak; no strength is given. Tags and fused reporters may be left off the sequences shown.
